Results: doi:10.1101/2021.06.16.448656

By UniProt entry, the sequences of proteins in these tests, tags left out.
UniProt Q9UKV8: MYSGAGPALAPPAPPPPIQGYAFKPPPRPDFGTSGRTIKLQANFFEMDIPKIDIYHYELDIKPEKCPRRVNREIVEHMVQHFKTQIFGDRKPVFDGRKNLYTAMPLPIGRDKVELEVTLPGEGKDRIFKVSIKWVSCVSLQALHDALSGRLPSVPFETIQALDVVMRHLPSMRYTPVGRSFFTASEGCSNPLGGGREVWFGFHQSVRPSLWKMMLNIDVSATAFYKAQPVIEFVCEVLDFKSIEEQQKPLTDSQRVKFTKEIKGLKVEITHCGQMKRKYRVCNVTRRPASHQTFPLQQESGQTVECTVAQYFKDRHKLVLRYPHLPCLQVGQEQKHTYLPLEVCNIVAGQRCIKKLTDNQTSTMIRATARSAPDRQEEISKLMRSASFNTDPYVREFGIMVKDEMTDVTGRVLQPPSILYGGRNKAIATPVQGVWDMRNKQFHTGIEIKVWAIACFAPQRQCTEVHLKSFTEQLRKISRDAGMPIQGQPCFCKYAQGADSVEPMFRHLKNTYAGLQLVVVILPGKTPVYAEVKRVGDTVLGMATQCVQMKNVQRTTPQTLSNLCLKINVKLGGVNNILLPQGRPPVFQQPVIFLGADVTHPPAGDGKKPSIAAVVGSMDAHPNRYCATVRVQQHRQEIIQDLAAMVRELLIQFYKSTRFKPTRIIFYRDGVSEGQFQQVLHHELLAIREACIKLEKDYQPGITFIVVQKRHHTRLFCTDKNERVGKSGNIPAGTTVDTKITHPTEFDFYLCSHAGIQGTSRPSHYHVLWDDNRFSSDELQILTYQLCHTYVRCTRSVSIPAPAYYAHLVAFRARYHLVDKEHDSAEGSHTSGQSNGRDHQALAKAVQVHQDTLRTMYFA
UniProt A5YKK6: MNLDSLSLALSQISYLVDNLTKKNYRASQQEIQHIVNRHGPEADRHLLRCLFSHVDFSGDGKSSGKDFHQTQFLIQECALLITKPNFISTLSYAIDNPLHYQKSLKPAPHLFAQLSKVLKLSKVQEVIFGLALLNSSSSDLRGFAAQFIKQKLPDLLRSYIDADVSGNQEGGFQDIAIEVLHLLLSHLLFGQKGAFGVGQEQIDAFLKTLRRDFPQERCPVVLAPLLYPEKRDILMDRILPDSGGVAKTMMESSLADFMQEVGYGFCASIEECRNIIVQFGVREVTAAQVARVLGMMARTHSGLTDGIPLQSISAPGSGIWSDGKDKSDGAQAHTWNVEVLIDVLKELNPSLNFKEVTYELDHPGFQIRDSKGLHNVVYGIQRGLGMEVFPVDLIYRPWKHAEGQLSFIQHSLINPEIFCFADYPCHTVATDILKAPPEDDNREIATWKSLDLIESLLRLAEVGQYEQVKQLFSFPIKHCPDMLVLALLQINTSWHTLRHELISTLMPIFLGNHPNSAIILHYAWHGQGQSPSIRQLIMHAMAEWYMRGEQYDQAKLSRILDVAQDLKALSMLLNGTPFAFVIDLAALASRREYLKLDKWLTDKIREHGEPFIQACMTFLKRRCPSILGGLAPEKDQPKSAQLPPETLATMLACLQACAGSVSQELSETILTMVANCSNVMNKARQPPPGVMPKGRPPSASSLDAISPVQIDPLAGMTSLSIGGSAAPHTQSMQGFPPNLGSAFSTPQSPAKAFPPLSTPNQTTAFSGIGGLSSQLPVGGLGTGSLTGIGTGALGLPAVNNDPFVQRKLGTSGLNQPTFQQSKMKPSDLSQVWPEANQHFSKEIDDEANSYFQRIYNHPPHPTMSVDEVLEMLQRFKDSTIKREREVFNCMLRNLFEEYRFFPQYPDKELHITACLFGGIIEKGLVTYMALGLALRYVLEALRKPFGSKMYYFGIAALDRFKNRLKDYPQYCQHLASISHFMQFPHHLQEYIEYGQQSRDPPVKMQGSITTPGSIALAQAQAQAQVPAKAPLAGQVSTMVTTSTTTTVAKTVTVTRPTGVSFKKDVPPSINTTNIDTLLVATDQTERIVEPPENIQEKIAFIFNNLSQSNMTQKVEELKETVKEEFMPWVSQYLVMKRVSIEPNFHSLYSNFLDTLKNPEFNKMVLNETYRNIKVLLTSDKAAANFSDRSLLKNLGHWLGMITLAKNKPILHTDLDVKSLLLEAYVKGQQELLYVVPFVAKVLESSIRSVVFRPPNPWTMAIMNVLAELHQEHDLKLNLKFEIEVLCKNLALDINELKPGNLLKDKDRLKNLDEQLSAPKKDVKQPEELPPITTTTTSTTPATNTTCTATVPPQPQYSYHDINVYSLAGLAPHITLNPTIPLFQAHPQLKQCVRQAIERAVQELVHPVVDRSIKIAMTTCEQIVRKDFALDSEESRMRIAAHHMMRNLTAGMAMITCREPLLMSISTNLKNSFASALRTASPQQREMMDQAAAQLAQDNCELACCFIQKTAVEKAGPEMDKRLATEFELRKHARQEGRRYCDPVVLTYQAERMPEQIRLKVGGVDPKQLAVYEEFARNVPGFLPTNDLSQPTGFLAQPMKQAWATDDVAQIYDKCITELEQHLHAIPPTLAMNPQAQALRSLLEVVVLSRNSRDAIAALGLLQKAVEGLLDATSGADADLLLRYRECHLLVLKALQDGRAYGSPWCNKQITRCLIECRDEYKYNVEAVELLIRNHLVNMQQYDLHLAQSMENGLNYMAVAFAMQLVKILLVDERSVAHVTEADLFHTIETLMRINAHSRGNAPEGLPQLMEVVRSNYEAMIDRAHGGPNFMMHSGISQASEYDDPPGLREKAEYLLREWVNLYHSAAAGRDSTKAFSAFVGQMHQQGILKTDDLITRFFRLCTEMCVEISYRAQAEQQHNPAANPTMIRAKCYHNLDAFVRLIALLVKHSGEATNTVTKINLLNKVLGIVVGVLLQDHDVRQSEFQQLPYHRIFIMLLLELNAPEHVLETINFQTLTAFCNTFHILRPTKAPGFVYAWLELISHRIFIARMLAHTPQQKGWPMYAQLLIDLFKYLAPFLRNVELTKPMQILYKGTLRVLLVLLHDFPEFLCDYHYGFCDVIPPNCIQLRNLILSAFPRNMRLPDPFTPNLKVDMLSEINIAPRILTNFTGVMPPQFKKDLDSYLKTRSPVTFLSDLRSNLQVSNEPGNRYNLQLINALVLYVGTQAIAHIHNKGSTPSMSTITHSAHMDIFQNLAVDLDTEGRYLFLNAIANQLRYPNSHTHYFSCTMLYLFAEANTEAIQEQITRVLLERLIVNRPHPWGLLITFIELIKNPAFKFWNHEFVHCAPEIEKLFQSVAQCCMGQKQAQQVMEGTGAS
UniProt Q9UPY3: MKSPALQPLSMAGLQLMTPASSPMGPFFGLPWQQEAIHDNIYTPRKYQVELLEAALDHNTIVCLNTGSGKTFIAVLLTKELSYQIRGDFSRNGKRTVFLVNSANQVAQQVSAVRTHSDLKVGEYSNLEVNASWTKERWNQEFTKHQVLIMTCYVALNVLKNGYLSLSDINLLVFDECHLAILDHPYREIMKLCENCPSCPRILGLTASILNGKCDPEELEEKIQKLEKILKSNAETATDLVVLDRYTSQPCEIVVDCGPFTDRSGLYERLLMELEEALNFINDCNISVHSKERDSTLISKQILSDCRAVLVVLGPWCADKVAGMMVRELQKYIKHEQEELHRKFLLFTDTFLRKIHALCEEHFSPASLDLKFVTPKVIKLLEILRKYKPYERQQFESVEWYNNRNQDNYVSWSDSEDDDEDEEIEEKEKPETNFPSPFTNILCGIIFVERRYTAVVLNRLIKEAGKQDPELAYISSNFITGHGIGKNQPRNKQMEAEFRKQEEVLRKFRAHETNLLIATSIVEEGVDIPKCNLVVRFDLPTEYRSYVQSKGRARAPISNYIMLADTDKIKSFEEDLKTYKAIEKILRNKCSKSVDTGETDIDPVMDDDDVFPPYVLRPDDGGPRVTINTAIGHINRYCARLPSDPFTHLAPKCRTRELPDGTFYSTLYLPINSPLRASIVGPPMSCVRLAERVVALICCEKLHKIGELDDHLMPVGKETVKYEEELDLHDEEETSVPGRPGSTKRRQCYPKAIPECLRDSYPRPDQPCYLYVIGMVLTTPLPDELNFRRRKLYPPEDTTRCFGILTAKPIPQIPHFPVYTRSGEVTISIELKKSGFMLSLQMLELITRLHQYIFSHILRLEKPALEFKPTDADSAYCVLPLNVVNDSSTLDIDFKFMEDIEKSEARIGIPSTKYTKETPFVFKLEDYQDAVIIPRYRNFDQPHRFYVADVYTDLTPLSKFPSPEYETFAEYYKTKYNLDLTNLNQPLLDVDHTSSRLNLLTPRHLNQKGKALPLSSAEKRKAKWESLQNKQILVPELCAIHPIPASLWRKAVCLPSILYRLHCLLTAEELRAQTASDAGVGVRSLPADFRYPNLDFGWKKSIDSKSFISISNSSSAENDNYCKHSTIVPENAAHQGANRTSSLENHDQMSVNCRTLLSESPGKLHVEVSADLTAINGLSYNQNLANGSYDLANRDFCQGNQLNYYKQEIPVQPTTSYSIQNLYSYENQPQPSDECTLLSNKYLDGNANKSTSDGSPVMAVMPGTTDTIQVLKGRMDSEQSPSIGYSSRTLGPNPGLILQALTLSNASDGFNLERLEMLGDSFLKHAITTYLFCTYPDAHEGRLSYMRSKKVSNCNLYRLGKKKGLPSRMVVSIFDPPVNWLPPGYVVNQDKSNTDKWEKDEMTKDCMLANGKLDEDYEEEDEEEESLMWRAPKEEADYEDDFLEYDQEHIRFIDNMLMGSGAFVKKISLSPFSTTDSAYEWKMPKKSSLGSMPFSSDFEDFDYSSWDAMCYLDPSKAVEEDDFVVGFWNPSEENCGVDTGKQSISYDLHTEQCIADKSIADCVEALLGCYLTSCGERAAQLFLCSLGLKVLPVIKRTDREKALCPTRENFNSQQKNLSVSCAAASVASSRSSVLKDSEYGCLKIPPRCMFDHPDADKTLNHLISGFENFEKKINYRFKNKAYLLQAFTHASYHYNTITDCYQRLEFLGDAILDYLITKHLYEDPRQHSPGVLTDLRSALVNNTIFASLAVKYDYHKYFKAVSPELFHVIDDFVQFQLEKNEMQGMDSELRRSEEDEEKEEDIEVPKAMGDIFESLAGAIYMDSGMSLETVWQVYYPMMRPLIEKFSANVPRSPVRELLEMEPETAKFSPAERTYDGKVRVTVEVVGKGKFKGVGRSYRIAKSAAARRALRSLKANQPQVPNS
UniProt Q8BRF7: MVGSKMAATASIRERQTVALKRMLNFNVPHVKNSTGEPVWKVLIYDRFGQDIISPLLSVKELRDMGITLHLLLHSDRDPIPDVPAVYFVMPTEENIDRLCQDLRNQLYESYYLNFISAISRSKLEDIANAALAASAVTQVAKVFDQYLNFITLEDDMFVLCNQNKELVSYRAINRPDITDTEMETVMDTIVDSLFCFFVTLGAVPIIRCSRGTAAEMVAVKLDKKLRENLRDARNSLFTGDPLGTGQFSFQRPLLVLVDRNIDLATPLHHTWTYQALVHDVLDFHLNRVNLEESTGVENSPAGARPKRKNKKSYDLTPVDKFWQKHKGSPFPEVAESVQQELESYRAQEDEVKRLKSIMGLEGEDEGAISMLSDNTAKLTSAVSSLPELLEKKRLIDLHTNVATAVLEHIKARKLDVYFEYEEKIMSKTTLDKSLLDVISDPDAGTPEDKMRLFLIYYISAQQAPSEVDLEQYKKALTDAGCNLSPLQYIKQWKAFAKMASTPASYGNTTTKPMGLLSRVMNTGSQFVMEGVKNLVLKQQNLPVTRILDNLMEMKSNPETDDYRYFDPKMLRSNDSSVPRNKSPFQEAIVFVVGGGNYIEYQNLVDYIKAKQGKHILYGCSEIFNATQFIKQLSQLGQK

How the values were obtained:
Experiment in all cases: proximity labelling
[1] = biological target: T1, γ1-COP-ultraID (γ1-COP subunit of coatomer with ultraID fused to its C-terminus) (UniProt Q9QZE5)
T1 sequence: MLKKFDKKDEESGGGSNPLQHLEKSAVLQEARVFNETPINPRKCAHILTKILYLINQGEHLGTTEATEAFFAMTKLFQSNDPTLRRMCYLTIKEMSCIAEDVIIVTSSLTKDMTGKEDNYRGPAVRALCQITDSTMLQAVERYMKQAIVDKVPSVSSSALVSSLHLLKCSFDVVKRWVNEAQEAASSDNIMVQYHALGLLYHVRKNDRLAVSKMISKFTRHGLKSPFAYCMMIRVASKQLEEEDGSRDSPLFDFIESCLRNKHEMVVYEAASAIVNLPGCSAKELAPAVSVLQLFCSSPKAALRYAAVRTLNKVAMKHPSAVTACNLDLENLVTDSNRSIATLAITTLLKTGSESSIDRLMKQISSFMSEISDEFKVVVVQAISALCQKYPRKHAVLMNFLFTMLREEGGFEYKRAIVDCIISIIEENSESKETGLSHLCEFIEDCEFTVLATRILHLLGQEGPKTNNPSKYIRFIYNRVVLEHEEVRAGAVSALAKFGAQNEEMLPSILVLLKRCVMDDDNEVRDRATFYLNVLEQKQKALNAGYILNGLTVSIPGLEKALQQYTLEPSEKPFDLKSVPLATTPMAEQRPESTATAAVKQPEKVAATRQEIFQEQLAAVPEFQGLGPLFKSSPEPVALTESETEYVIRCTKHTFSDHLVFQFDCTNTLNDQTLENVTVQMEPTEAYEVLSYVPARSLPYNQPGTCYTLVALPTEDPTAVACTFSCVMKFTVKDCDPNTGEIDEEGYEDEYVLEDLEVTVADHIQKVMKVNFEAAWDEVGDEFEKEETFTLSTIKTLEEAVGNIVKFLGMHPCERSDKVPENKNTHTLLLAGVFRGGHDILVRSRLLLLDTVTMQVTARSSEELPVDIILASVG

BioID-Ago2 = BioID-Ago2 (UniProt Q9UKV8)
[2] = biological target: ultraID-Ago2 (ultraID fused to the N-terminus of Argonaute-2) (UniProt Q9UKV8)
[3] = biological target: T2, γ2-COP-ultraID (γ2-COP subunit of coatomer with ultraID fused to its C-terminus) (UniProt Q9QXK3)
T2 sequence: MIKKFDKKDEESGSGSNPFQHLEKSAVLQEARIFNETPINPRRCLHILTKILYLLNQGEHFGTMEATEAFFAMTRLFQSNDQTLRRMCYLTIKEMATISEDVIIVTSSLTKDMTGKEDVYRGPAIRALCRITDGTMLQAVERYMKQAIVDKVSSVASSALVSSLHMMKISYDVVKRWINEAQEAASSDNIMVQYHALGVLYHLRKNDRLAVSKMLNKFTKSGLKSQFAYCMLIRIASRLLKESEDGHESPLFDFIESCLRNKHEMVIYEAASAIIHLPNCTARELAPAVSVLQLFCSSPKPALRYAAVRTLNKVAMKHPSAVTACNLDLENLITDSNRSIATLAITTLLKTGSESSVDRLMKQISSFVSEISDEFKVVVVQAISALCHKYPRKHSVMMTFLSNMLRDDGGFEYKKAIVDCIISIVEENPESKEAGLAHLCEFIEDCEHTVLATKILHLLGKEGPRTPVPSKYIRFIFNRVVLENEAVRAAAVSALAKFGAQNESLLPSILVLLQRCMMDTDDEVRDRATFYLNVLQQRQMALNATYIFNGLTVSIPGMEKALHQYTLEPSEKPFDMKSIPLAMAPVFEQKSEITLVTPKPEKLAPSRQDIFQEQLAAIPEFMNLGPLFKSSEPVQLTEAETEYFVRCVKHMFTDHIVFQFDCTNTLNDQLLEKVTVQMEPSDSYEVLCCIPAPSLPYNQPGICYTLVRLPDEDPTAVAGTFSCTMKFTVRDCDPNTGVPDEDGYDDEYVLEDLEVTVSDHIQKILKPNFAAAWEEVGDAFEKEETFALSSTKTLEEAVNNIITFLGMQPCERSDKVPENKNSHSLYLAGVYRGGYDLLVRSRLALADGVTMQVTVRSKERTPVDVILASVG

ATP7A (from UniProt Q64430 1-1491) was tested, and the binding [1] was “binds”.
In the case of CNOT1 (from UniProt A5YKK6 1-2376), the binding (BioID-Ago2) is reported as “binds” and the binding [2] is reported as “binds”.
For Dicer (from UniProt Q9UPY3 1-1922), the binding (BioID-Ago2) was “binds” and the binding [2] was “binds”.
In the case of GCC185 (from UniProt Q8CHG3 1-1680), the binding [1] is reported as “binds” and the binding [3] is reported as “binds”.
With SLY-homolog (from UniProt Q8BRF7 1-639) the binding [1] was “binds” and the binding [3] was “binds”.
For XRN1 (from UniProt Q8IZH2 1-1706), the binding (BioID-Ago2) was “binds” and the binding [2] was “binds”.
giantin (mouse (endogenous in P19)) was tested, and the binding [1] was “binds” and the binding [3] was “binds”.
In the case of golgin-245 (from UniProt Q91VW5 1-2238), the binding [1] is reported as “binds” and the binding [3] is reported as “binds”.

These are yes or no findings as the source states them, for the method shown. Binding seen in cells or lysates may run through a third protein. A yes stands for co-enrichment or nearness to the bait. Other partners may have been found. For part of these data: Tags and fused reporters may be left off the sequences shown.
